No constants are given. Whether binding was seen depends on the method and setting. Binding seen in cells or lysates may run through a third protein. A yes stands for co-enrichment or nearness to the bait. Other partners may have been found.
Target: endogenous NUP98 (Nucleoporin 98) (human (endogenous in HL-60)) (UniProt P52948)
Experiment: affinity purification with mass spectrometry

Amino acid sequences for entries named in this document (tags omitted). Residues count along the entry.
UniProt P52948, residues 1-880: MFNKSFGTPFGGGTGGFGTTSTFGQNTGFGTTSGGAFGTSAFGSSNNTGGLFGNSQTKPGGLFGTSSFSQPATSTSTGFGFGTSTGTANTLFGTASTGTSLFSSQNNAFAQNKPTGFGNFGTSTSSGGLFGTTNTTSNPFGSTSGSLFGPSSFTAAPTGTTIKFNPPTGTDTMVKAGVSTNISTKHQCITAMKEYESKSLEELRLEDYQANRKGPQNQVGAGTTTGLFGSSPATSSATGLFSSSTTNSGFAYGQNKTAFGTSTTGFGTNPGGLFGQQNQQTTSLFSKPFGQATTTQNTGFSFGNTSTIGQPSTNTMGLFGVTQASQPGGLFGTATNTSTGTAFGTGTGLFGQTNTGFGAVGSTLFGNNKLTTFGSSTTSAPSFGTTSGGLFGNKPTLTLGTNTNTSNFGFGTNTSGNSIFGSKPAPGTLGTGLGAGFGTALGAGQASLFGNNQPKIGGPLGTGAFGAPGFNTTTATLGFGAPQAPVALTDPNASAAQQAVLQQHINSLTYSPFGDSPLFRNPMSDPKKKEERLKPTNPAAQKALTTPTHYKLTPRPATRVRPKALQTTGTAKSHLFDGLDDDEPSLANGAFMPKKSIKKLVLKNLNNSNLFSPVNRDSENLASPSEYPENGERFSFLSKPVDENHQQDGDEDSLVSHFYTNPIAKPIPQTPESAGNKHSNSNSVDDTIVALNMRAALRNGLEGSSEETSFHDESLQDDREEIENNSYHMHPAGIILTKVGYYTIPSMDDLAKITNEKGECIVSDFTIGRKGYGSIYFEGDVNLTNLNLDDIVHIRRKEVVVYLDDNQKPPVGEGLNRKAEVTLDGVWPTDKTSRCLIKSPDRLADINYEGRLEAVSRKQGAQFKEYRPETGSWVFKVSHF
UniProt P67809: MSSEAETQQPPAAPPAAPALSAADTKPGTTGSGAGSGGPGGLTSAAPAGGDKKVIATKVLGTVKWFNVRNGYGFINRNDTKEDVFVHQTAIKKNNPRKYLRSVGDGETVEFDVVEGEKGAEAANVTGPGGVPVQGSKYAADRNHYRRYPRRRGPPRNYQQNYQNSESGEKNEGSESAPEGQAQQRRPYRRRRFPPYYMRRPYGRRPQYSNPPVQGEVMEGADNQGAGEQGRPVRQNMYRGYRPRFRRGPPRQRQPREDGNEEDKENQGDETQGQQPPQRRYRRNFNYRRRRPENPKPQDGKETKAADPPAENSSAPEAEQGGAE

- binding: binds
Substance: YBX1 (from UniProt P67809 1-324)

Reference: paper doi:10.1101/2020.11.16.384271
